# Screening data

The results are deposited in PubChem (AID504749; NCATS, 2011).

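Malaria parasite (P. falciparum) lines kept in red blood cells; parasite DNA is measured by SYBR Green fluorescence after lysis, 72 h after compound addition.
Each compound was titrated across a series from about 0.000037 to 29 µM.
The number is the fitted AC50, the concentration giving a half-maximal change in signal; a lower value means higher potency, whether the curve shows a decrease or an increase.
Calls follow the curve class and fit quality: every row here is inconclusive, covering signal-raising curves and weak, poorly fitted, partial or highest-dose-only inhibition curves.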

Values are in nM.
All entries here are filed as inconclusive.
Only part of the assay is shown, chiefly results filed as inconclusive.
Potencies fitted to partial, single-point or poorly fitting curves are rough.

{"smiles": "COc1cc2c(c(OC)c1OC)-c1ccc(OC)c(=O)cc1[C@@H](NC(C)=O)CC2", "condition": "W2", "Potency (nM)": "477.5", "remark": "inhibitor, partial curve, poor fit"}
{"smiles": "COc1cc2c(c(OC)c1OC)-c1ccc(OC)c(=O)cc1[C@@H](NC(C)=O)CC2", "condition": "CP335", "Potency (nM)": "4256", "remark": "inhibitor, single point"}
{"smiles": "COc1cc2c(c(OC)c1OC)-c1ccc(OC)c(=O)cc1[C@@H](NC(C)=O)CC2", "condition": "CP215", "Potency (nM)": "13459", "remark": "inhibitor, single point"}
{"smiles": "C[C@@H](CCc1ccccc1)NC[C@H](O)c1ccc(O)c(C(N)=O)c1", "condition": "3D7", "Potency (nM)": "12589", "remark": "inhibitor, single point"}
{"smiles": "C[C@@H](CCc1ccccc1)NC[C@H](O)c1ccc(O)c(C(N)=O)c1", "condition": "W2", "Potency (nM)": "19011", "remark": "inhibitor, single point"}
{"smiles": "C[C@@H](CCc1ccccc1)NC[C@H](O)c1ccc(O)c(C(N)=O)c1", "condition": "HB3", "Potency (nM)": "11220", "remark": "inhibitor, single point"}
{"smiles": "C[C@@H](CCc1ccccc1)NC[C@H](O)c1ccc(O)c(C(N)=O)c1", "condition": "ICS", "Potency (nM)": "11220", "remark": "inhibitor, single point"}
{"smiles": "C[C@@H](CCc1ccccc1)NC[C@H](O)c1ccc(O)c(C(N)=O)c1", "condition": "GB4", "Potency (nM)": "21331", "remark": "inhibitor, partial curve, poor fit"}
{"smiles": "C[C@@H](CCc1ccccc1)NC[C@H](O)c1ccc(O)c(C(N)=O)c1", "condition": "DIV14", "Potency (nM)": "15101", "remark": "inhibitor, single point"}
{"smiles": "C[C@@H](CCc1ccccc1)NC[C@H](O)c1ccc(O)c(C(N)=O)c1", "condition": "ECU", "Potency (nM)": "14125", "remark": "inhibitor, single point"}
{"smiles": "C[C@@H](CCc1ccccc1)NC[C@H](O)c1ccc(O)c(C(N)=O)c1", "condition": "DIV30", "Potency (nM)": "21331", "remark": "inhibitor, partial curve, poor fit"}
{"smiles": "C[C@@H](CCc1ccccc1)NC[C@H](O)c1ccc(O)c(C(N)=O)c1", "condition": "DFO2036", "Potency (nM)": "7943", "remark": "inhibitor, partial curve"}
{"smiles": "C[C@@H](CCc1ccccc1)NC[C@H](O)c1ccc(O)c(C(N)=O)c1", "condition": "PAD", "Potency (nM)": "17782", "remark": "inhibitor, single point"}
{"smiles": "C[C@@H](CCc1ccccc1)NC[C@H](O)c1ccc(O)c(C(N)=O)c1", "condition": "DIV17", "Potency (nM)": "16944", "remark": "inhibitor, single point"}
{"smiles": "CCN(CC)CCOC(=O)[C@@H](Cc1cccc2ccccc12)C[C@@H]1CCCO1", "condition": "ATS95", "Potency (nM)": "5012", "remark": "inhibitor, single point"}

Repeated from the top, 2 entries:

| SMILES | condition | Potency (nM) | remark |
|---|---|---|---|
| `COc1cc2c(c(OC)c1OC)-c1ccc(OC)c(=O)cc1[C@@H](NC(C)=O)CC2` | W2 | 477.5 | inhibitor, partial curve, poor fit |
| `COc1cc2c(c(OC)c1OC)-c1ccc(OC)c(=O)cc1[C@@H](NC(C)=O)CC2` | CP335 | 4256 | inhibitor, single point |